# Some of the results follow.
# B1: Latrophilin-3 (Homo sapiens), Q9HAR2 (protein)
# chain: MWPSQLLIFMMLLAPIIHAFSRAPIPMAVVRRELSCESYPIELRCPGTDVIMIESANYGRTDDKICDSDPAQMENIRCYLPDAYKIMSQRCNNRTQCAVVAGPDVFPDPCPGTYKYLEVQYECVPYKVEQKVFLCPGLLKGVYQSEHLFESDHQSGAWCKDPLQASDKIYYMPWTPYRTDTLTEYSSKDDFIAGRPTTTYKLPHRVDGTGFVVYDGALFFNKERTRNIVKFDLRTRIKSGEAIIANANYHDTSPYRWGGKSDIDLAVDENGLWVIYATEQNNGKIVISQLNPYTLRIEGTWDTAYDKRSASNAFMICGILYVVKSVYEDDDNEATGNKIDYIYNTDQSKDSLVDVPFPNSYQYIAAVDYNPRDNLLYVWNNYHVVKYSLDFGPLDSRSGQAHHGQVSYISPPIHLDSELERPSVKDISTTGPLGMGSTTTSTTLRTTTLSPGRSTTPSVSGRRNRSTSTPSPAVEVLDDMTTHLPSASSQIPALEESCEAVEAREIMWFKTRQGQIAKQPCPAGTIGVSTYLCLAPDGIWDPQGPDLSNCSSPWVNHITQKLKSGETAANIARELAEQTRNHLNAGDITYSVRAMDQLVGLLDVQLRNLTPGGKDSAARSLNKAMVETVNNLLQPQALNAWRDLTTSDQLRAATMLLHTVEESAFVLADNLLKTDIVRENTDNIKLEVARLSTEGNLEDLKFPENMGHGSTIQLSANTLKQNGRNGEIRVAFVLYNNLGPYLSTENASMKLGTEALSTNHSVIVNSPVITAAINKEFSNKVYLADPVVFTVKHIKQSEENFNPNCSFWSYSKRTMTGYWSTQGCRLLTTNKTHTTCSCNHLTNFAVLMAHVEVKHSDAVHDLLLDVITWVGILLSLVCLLICIFTFCFFRGLQSDRNTIHKNLCISLFVAELLFLIGINRTDQPIACAVFAALLHFFFLAAFTWMFLEGVQLYIMLVEVFESEHSRRKYFYLVGYGMPALIVAVSAAVDYRSYGTDKVCWLRLDTYFIWSFIGPATLIIMLNVIFLGIALYKMFHHTAILKPESGCLDNIKSWVIGAIALLCLLGLTWAFGLMYINESTVIMAYLFTIFNSLQGMFIFIFHCVLQKKVRKEYGKCLRTHCCSGKSTESSIGSGKTSGSRTPGRYSTGSQSRIRRMWNDTVRKQSESSFITGDINSSASLNREGLLNNARDTSVMDTLPLNGNHGNSYSIASGEYLSNCVQIIDRGYNHNETALEKKILKELTSNYIPSYLNNHERSSEQNRNLMNKLVNNLGSGREDDAIVLDDATSFNHEESLGLELIHEESDAPLLPPRVYSTENHQPHHYTRRRIPQDHSESFFPLLTNEHTEDLQSPHRDSLYTSMPTLAGVAATESVTTSTQTEPPPAKCGDAEDVYYKSMPNLGSRNHVHQLHTYYQLGRGSSDGFIVPPNKDGTPPEGSSKGPAHLVTSL
# Columns and labels:
# Test in all cases: glycan array binding signal (z-score within array); higher = stronger binding
# Details in all cases: glycan notation: IUPAC condensed, linker removed
# Gal(a1-4)Gal(b1-4)GlcNAc = molecular target: Gal(a1-4)Gal(b1-4)GlcNAc
# Summary of the method: (§1)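 Columns mapping to the same glycan were averaged after glycan names were converted to IUPAC-condensed notation. The data come from 3228 arrays in the Consortium for Functional Glycomics database, limited to those with an available protein sequence. Binding is reported as a within-array Z-score averaged across arrays of one protein sequence and across linkers.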
# [1] = molecular target: Gal(a1-4)Gal(b1-4)GlcNAc(b1-2)Man(a1-3)[Gal(a1-4)Gal(b1-4)GlcNAc(b1-2)Man(a1-6)]Man(b1-4)GlcNAc(b1-4)GlcNAc
# Summary of the method: as §1
# [2] = molecular target: Gal(a1-4)Gal(b1-4)GlcNAc(b1-3)Gal(b1-4)Glc
# Summary of the method: as §1
# Gal(a1-4)GlcNAc = molecular target: Gal(a1-4)GlcNAc
# Summary of the method: as §1
# Gal(a1-6)Glc = molecular target: Gal(a1-6)Glc
# Summary of the method: as §1
# Gal(b1-2)Gal = molecular target: Gal(b1-2)Gal
# Summary of the method: as §1
# Gal(b1-3)Gal = molecular target: Gal(b1-3)Gal
# Summary of the method: as §1
# Gal(b1-3)Gal(b1-4)GlcNAc = molecular target: Gal(b1-3)Gal(b1-4)GlcNAc
# Summary of the method: as §1
# [3] = molecular target: Gal(b1-3)Gal(b1-4)GlcNAc(b1-2)Man(a1-3)[Gal(b1-3)Gal(b1-4)GlcNAc(b1-2)Man(a1-6)]Man(b1-4)GlcNAc(b1-4)GlcNAc
# Summary of the method: as §1
# Gal(b1-3)GalNAc = molecular target: Gal(b1-3)GalNAc
# Summary of the method: as §1
# [4] = molecular target: Gal(b1-3)GalNAc(a1-3)[Fuc(a1-2)]Gal(b1-4)Glc
# Summary of the method: as §1
# [5] = molecular target: Gal(b1-3)GalNAc(a1-3)[Fuc(a1-2)]Gal(b1-4)GlcNAc
# Summary of the method: as §1
# [6] = molecular target: Gal(b1-3)GalNAc(b1-3)Gal(a1-4)Gal(b1-4)Glc
# Summary of the method: as §1
# [7] = molecular target: Gal(b1-3)GalNAc(b1-4)Gal(b1-4)Glc
# Summary of the method: as §1
# [8] = molecular target: Gal(b1-3)GalNAc(b1-4)[Neu5Ac(a2-3)]Gal(b1-4)Glc
# Summary of the method: as §1
# Gal(b1-3)GlcNAc = molecular target: Gal(b1-3)GlcNAc
# Summary of the method: as §1
# [9] = molecular target: Gal(b1-3)GlcNAc(a1-3)Gal(b1-4)GlcNAc
# Summary of the method: as §1
# [10] = molecular target: Gal(b1-3)GlcNAc(a1-6)Gal(b1-4)GlcNAc
# Summary of the method: as §1
# [11] = molecular target: Gal(b1-3)GlcNAc(b1-2)Man(a1-3)[Gal(b1-3)GlcNAc(b1-2)Man(a1-6)]Man(b1-4)GlcNAc(b1-4)GlcNAc
# Summary of the method: as §1
# [12] = molecular target: Gal(b1-3)GlcNAc(b1-2)Man(a1-3)[Gal(b1-3)GlcNAc(b1-2)Man(a1-6)]Man(b1-4)GlcNAc(b1-4)[Fuc(a1-6)]GlcNAc
# Summary of the method: as §1
# [13] = molecular target: Gal(b1-3)GlcNAc(b1-2)Man(a1-3)[GlcNAc(b1-4)][Gal(b1-3)GlcNAc(b1-2)Man(a1-6)]Man(b1-4)GlcNAc(b1-4)GlcNAc
# Summary of the method: as §1
# [14] = molecular target: Gal(b1-3)GlcNAc(b1-2)[Gal(b1-3)GlcNAc(b1-6)]Man(a1-6)[Gal(b1-3)GlcNAc(b1-2)Man(a1-3)]Man(b1-4)GlcNAc(b1-4)GlcNAc
# Summary of the method: as §1
# [15] = molecular target: Gal(b1-3)GlcNAc(b1-3)Gal(b1-3)GlcNAc
# Summary of the method: as §1
# [16] = molecular target: Gal(b1-3)GlcNAc(b1-3)Gal(b1-4)Glc
# Summary of the method: as §1
# [17] = molecular target: Gal(b1-3)GlcNAc(b1-3)Gal(b1-4)GlcNAc
# Summary of the method: as §1
# [18] = molecular target: Gal(b1-3)GlcNAc(b1-3)Gal(b1-4)GlcNAc(b1-6)[Gal(b1-3)GlcNAc(b1-3)]Gal(b1-4)Glc
# Summary of the method: as §1
# [19] = molecular target: Gal(b1-3)GlcNAc(b1-3)Gal(b1-4)[Fuc(a1-3)]GlcNAc(b1-6)[Gal(b1-3)GlcNAc(b1-3)]Gal(b1-4)Glc
# Summary of the method: as §1
# [20] = molecular target: Gal(b1-3)GlcNAc(b1-3)GalNAc
# Summary of the method: as §1
# [21] = molecular target: Gal(b1-3)GlcNAc(b1-6)Gal(b1-4)GlcNAc
# Summary of the method: as §1
# [22] = molecular target: Gal(b1-3)GlcNAc(b1-6)GalNAc
# Summary of the method: as §1
# Gal(b1-3)GlcNAc6S = molecular target: Gal(b1-3)GlcNAc6S
# Summary of the method: as §1
# [23] = molecular target: Gal(b1-3)[Fuc(a1-4)]GlcNAc
# Summary of the method: as §1
# [24] = molecular target: Gal(b1-3)[Fuc(a1-4)]GlcNAc(b1-2)Man(a1-3)[Gal(b1-3)[Fuc(a1-4)]GlcNAc(b1-2)Man(a1-6)]Man(b1-4)GlcNAc(b1-4)[Fuc(a1-6)]GlcNAc
# Summary of the method: as §1
# [25] = molecular target: Gal(b1-3)[Fuc(a1-4)]GlcNAc(b1-3)Gal(b1-3)[Fuc(a1-4)]GlcNAc
# Summary of the method: as §1
# [26] = molecular target: Gal(b1-3)[Fuc(a1-4)]GlcNAc(b1-3)Gal(b1-4)GlcNAc
# Summary of the method: as §1
# [27] = molecular target: Gal(b1-3)[Fuc(a1-4)]GlcNAc(b1-3)Gal(b1-4)[Fuc(a1-3)]GlcNAc
# Summary of the method: as §1
# [28] = molecular target: Gal(b1-3)[Fuc(a1-4)]GlcNAc(b1-6)GalNAc
# Summary of the method: as §1
# [29] = molecular target: Gal(b1-3)[GlcNAc(b1-6)]GalNAc
# Summary of the method: as §1
# [30] = molecular target: Gal(b1-3)[Neu5Ac(a2-6)]GalNAc
# Summary of the method: as §1
# [31] = molecular target: Gal(b1-3)[Neu5Ac(a2-6)]GlcNAc(b1-6)Gal(b1-4)Glc
# Summary of the method: as §1
# [32] = molecular target: Gal(b1-3)[Neu5Ac(b2-6)]GalNAc
# Summary of the method: as §1
# Gal(b1-4)Gal = molecular target: Gal(b1-4)Gal
# Summary of the method: as §1
# [33] = molecular target: Gal(b1-4)GalNAc(a1-3)[Fuc(a1-2)]Gal(b1-4)GlcNAc
# Summary of the method: as §1
# [34] = molecular target: Gal(b1-4)GalNAc(b1-3)[Fuc(a1-2)]Gal(b1-4)GlcNAc
# Summary of the method: as §1
# Gal(b1-4)Glc = molecular target: Gal(b1-4)Glc
# Summary of the method: as §1
binder,measurement,setting,value
B1,glycan array binding signal (z-score),Gal(a1-4)Gal(b1-4)GlcNAc,-1.08
same,glycan array binding signal (z-score),[1],-0.437
same,glycan array binding signal (z-score),[2],-1.03
same,glycan array binding signal (z-score),Gal(a1-4)GlcNAc,1.45
same,glycan array binding signal (z-score),Gal(a1-6)Glc,0.098
same,glycan array binding signal (z-score),Gal(b1-2)Gal,1.21
same,glycan array binding signal (z-score),Gal(b1-3)Gal,-0.342
same,glycan array binding signal (z-score),Gal(b1-3)Gal(b1-4)GlcNAc,-0.126
same,glycan array binding signal (z-score),[3],0.161
same,glycan array binding signal (z-score),Gal(b1-3)GalNAc,-0.726
same,glycan array binding signal (z-score),[4],-0.197
same,glycan array binding signal (z-score),[5],-0.374
same,glycan array binding signal (z-score),[6],-1.11
same,glycan array binding signal (z-score),[7],0.382
same,glycan array binding signal (z-score),[8],-0.423
same,glycan array binding signal (z-score),Gal(b1-3)GlcNAc,-1.67
same,glycan array binding signal (z-score),[9],-0.57
same,glycan array binding signal (z-score),[10],-0.347
same,glycan array binding signal (z-score),[11],1.77
same,glycan array binding signal (z-score),[12],0.213
same,glycan array binding signal (z-score),[13],-0.166
same,glycan array binding signal (z-score),[14],1.4
same,glycan array binding signal (z-score),[15],-0.191
same,glycan array binding signal (z-score),[16],1.37
same,glycan array binding signal (z-score),[17],0.051
same,glycan array binding signal (z-score),[18],-2.05
same,glycan array binding signal (z-score),[19],0.43
same,glycan array binding signal (z-score),[20],-0.127
same,glycan array binding signal (z-score),[21],-0.605
same,glycan array binding signal (z-score),[22],0.017
same,glycan array binding signal (z-score),Gal(b1-3)GlcNAc6S,0.751
same,glycan array binding signal (z-score),[23],-0.275
same,glycan array binding signal (z-score),[24],-0.727
same,glycan array binding signal (z-score),[25],-0.618
same,glycan array binding signal (z-score),[26],-0.804
same,glycan array binding signal (z-score),[27],0.189
same,glycan array binding signal (z-score),[28],1.62
same,glycan array binding signal (z-score),[29],-0.67
same,glycan array binding signal (z-score),[30],0.244
same,glycan array binding signal (z-score),[31],-1.59
same,glycan array binding signal (z-score),[32],-0.594
same,glycan array binding signal (z-score),Gal(b1-4)Gal,0.444
same,glycan array binding signal (z-score),[33],-0.765
same,glycan array binding signal (z-score),[34],0.394
same,glycan array binding signal (z-score),Gal(b1-4)Glc,0.53

# For convenience, part of the list above:
binder,measurement,setting,value
B1,glycan array binding signal (z-score),Gal(b1-2)Gal,1.21
same,glycan array binding signal (z-score),Gal(b1-3)Gal,-0.342
same,glycan array binding signal (z-score),Gal(b1-3)Gal(b1-4)GlcNAc,-0.126

# From the supplement of paper PMC8728848
